Reference: PubChem BioAssay AID1259308 (NCATS, 2017)
Test: 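Genes whose loss raises luciferase production in HEK293 cells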 (primary screen). Cells: human HEK293 embryonic kidney cells stably expressing firefly luciferase (HEK-CMV-Luc2-Hygro). Knock-down reagent: single siRNA against human genes, 0.8 pmol siRNA per well. Timing: 72 h. Read-out: 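Reporter luminescence and viable-cell signal on separate replicate plates, given as percent of non-targeting control and median/MAD z-scores, plus per-cell luciferase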. Direction: total luciferase, z-score and total luciferase, % of control: higher = more reporter protein produced. Active means: 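An siRNA counts as active if its total luciferase robust z-score exceeds 3; genes with two or more such siRNAs out of three were retested with fresh siRNAs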. Meaning of the calls: active = raised luciferase; inactive = no rise.
This is an unselected part of about 59,000 reagents tested. About 1,510 of all reagents (2.6%) were called active. 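Calls use total luciferase alone and ignore viability, so some active siRNAs may act by altering cell number.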 Further read-outs or replicates are left out here. Reagent sequences are not shown.

The first 3 entries, to show the layout:
Target gene | PubChem SID | total luciferase, z-score | total luciferase, % of control | call
MOB1B | SID160754319 | -0.316 | 75.6 | inactive
MOB1B | SID160754320 | -0.18 | 78.3 | inactive
MOB1B | SID160754321 | 1.1 | 104 | inactive

The list itself, repeating the preview:
Target gene | PubChem SID | total luciferase, z-score | total luciferase, % of control | call
MOB1B | SID160754319 | -0.316 | 75.6 | inactive
MOB1B | SID160754320 | -0.18 | 78.3 | inactive
MOB1B | SID160754321 | 1.1 | 104 | inactive
PCDHGA8 | SID160722868 | 0.501 | 91.8 | inactive
PCDHGA8 | SID160722869 | -0.3 | 75.9 | inactive
PCDHGA8 | SID160722870 | 0.308 | 88 | inactive
IBSP | SID160775492 | -1.29 | 56.3 | inactive
IBSP | SID160775493 | 2.82 | 138 | inactive
IBSP | SID160775494 | -0.272 | 76.5 | inactive
DLC1 | SID160727874 | -0.087 | 80.2 | inactive
DLC1 | SID160727875 | 1.84 | 119 | inactive
DLC1 | SID160727877 | 0.0973 | 83.8 | inactive
HTRA3 | SID160732175 | -0.975 | 62.5 | inactive
HTRA3 | SID160754589 | -1.21 | 57.8 | inactive
HTRA3 | SID160754590 | 0.982 | 101 | inactive
FAM3A | SID160747045 | -0.306 | 75.8 | inactive
FAM3A | SID160747046 | -0.734 | 67.3 | inactive
FAM3A | SID160747047 | 0.178 | 85.4 | inactive
RPE65 | SID160716019 | 0.315 | 88.1 | inactive
RPE65 | SID160716021 | 1.23 | 106 | inactive
RPE65 | SID160716022 | -0.183 | 78.3 | inactive
SDCBP2 | SID160738388 | -1.51 | 51.9 | inactive
SDCBP2 | SID160738389 | -0.152 | 78.9 | inactive
SDCBP2 | SID160738390 | 1.28 | 107 | inactive
LMO2 | SID160731205 | -0.191 | 78.1 | inactive
LMO2 | SID160776670 | 0.937 | 101 | inactive
LMO2 | SID160776671 | -0.846 | 65.1 | inactive
GPRIN3 | SID160763629 | 2.92 | 140 | inactive
GPRIN3 | SID160763630 | -1.07 | 60.5 | inactive
GPRIN3 | SID160763631 | 0.083 | 83.5 | inactive
CCHCR1 | SID160741872 | 0.755 | 96.9 | inactive
CCHCR1 | SID160741873 | 1.91 | 120 | inactive
CCHCR1 | SID160741874 | -0.00777 | 81.7 | inactive
RPL29P32 | SID160725278 | -0.694 | 68.1 | inactive
RPL29P32 | SID160733260 | -1.61 | 49.9 | inactive
RPL29P32 | SID160766583 | 1.9 | 120 | inactive
TRIM3 | SID160728854 | 0.405 | 89.9 | inactive
TRIM3 | SID160728855 | -0.776 | 66.4 | inactive
TRIM3 | SID160728856 | -1.66 | 48.9 | inactive
CKAP2 | SID160738109 | -0.483 | 72.3 | inactive
CKAP2 | SID160738110 | -0.48 | 72.3 | inactive
CKAP2 | SID160738111 | 1.06 | 103 | inactive
C2 | SID160729634 | 0.677 | 95.3 | inactive
C2 | SID160729645 | 3.64 | 154 | active
C2 | SID160729654 | 0.495 | 91.7 | inactive
FABP3 | SID160763409 | 0.0627 | 83.1 | inactive
FABP3 | SID160763420 | -0.242 | 77.1 | inactive
FABP3 | SID160763430 | -0.357 | 74.8 | inactive
TMEM243 | SID160748726 | 0.193 | 85.7 | inactive
TMEM243 | SID160748727 | 1.31 | 108 | inactive
TMEM243 | SID160748728 | -0.387 | 74.2 | inactive
LOC440895 | SID160767881 | 0.986 | 101 | inactive
LOC440895 | SID160767882 | -1.08 | 60.5 | inactive
LOC440895 | SID160767883 | -1.52 | 51.7 | inactive
KHK | SID160776265 | 2.74 | 136 | inactive
KHK | SID160776266 | -1.14 | 59.2 | inactive
KHK | SID160776268 | -1.49 | 52.3 | inactive
FKBP5 | SID160765861 | -0.0351 | 81.2 | inactive
FKBP5 | SID160765870 | 0.25 | 86.9 | inactive
FKBP5 | SID160765881 | -2.06 | 40.9 | inactive
PKP3 | SID160730157 | -1.02 | 61.6 | inactive
PKP3 | SID160730159 | 0.507 | 92 | inactive
PKP3 | SID160730160 | -0.262 | 76.7 | inactive
KCNMB4 | SID160730979 | 1.92 | 120 | inactive
KCNMB4 | SID160738773 | 2.41 | 130 | inactive
KCNMB4 | SID160738774 | -1.39 | 54.3 | inactive
MANEAL | SID160732560 | -0.398 | 74 | inactive
MANEAL | SID160758788 | 1.03 | 102 | inactive
MANEAL | SID160758789 | -0.68 | 68.4 | inactive
GOLGA8J | SID160770915 | 3.56 | 153 | active
GOLGA8J | SID160770916 | 0.332 | 88.5 | inactive
GOLGA8J | SID160770917 | -1.91 | 43.8 | inactive
RNASE2 | SID160715930 | -0.0305 | 81.3 | inactive
RNASE2 | SID160715931 | 1.35 | 109 | inactive
RNASE2 | SID160715932 | 2.22 | 126 | inactive
